Results published in patent publication US20060292213A1, “Enoximone formulations and their use in the treatment of PDE-III mediated diseases” (Myogen, Inc., priority 2004, published 2006).

Test system: normal human volunteers
Assay: Renal function and plasma volume in normal human volunteers (Example 4)
Conditions: single I.V. dose 2.5 mg/kg, then 200 mg t.i.d. for 5 days

CSc1ccc(C(=O)c2[nH]c(=O)[nH]c2C)cc1 [Enoximone, 1,3-Dihydro-4-methyl-5-[4-(methylthio)benzoyl]-2H-imidazol-2-one]
change of plasma volume from baseline: 327 ± 135.9 mL | plasma volume after treatment (RISA method) (baseline 1573+/−149.5 ml): 1900 ± 79.9 mL
